Where a SMILES comes first, the peptide text is derived from it. [ ]: non-standard residue; d: D form. d(pGlu) = O=C1CC[C@H](C(=O)O)N1
System: Haloperidol-induced catalepsy
Assay: Inhibition of Haloperidol-induced catalepsy on rats
Assay type: in vivo, rat (male Wistar)
Conditions: observation time after i.v. treatment belonging to the ED50
Protocol: (1) Inhibition of Haloperidol-induced catalepsy on rats (see J. Delay and P. Deniker: Compt. Rend. Congr. Med. Alenistes Neurologistes, 19, 497, Luxembourg, 1952)
The tests were performed on male Wistar rats weighing 160 to 180 g.
40 mg/kg of 4-(p-chlorophenyl)-1-(3-/p-fluorobenzoyl/-propyl)-piperidin-4-ol (Haloperi dol) were administered subcutaneously into the animals, and 120 minutes after this treatment the animals were checked for the appearance of catalepsy. The rats were divided into groups of 10 animals each, and treated intravenously with TRH or the new TRH analogues. The animals belonging to the control group received physiological saline. The catalepsy-suspending effects of the individual compounds were determined 15, 30, 60, 90 and 120 minutes after the treatment. The animals that had not changed their position for 30 seconds after placing their fore-paw onto a 7 cm high column were regarded as cataleptic.

Structure (SMILES)	Inhibition of Haloperidol catalepsy, time [min]
CC(C)C[C@H](NC(=O)[C@H]1CCC(=O)N1)C(=O)N1CCC[C@H]1C(N)=O [D-Glp Leu Pro, D-Pyroglutamyl-L-leucyl-L-prolinamide] ([d(pGlu)]-Leu-Pro-NH2)	15
CC(C)C[C@H](NC(=O)C1CNC(=O)N1)C(=O)N1CCC[C@H]1C(N)=O (stereo partly drawn) [Kic Leu Pro, L-2-Ketoimidazolidine-4-carbonyl-L-leucyl-L-prolinamide]	30
CC(C)C[C@H](NC(=O)C1CCCC(=O)N1)C(=O)N1CCC[C@H]1C(N)=O (stereo partly drawn) [Kpc Leu Pro, L-6-ketopiperidine-2-carbonyl-L-leucyl-L-prolinamide]	60
CCC[C@H](NC(=O)C1CCCC(=O)N1)C(=O)N1CCCC[C@H]1C(N)=O (stereo partly drawn) [Kpc Nva HPro, L-6-Ketopiperidine-2-carbonyl-L-norvalyl-L-homoprolinamide]	15
CCC[C@H](NC(=O)C1CCCC(=O)N1)C(=O)N1CCC[C@H]1C(N)=O (stereo partly drawn) [Kpc Nva Pro, L-6-Ketopiperidine-2-carbonyl-L-norvalyl-L-prolinamide]	30
NC(=O)[C@@H]1CCCN1C(=O)[C@H](Cc1c[nH]cn1)NC(=O)[C@@H]1CCC(=O)N1 [TRH, L-pyroglutamyl-L-histidyl-L-prolinamide, reference compound]	15
